Measured values as given in publication PMC10763471.
These are yes or no findings as the source states them, for the method shown. In cells and extracts the contact can be indirect. Some results given as binding are weak or reduced against the parent protein; the word gives no strength. Tags and fused reporters may be left off the sequences shown.

By UniProt entry, the sequences of proteins in these tests, tags left out.
UniProt P61244: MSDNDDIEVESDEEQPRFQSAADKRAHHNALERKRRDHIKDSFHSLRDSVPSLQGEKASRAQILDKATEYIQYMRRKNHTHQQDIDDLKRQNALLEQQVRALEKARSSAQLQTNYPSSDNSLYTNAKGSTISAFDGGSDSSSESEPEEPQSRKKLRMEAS

T1: MYCT1 (MYC target 1) (human) (UniProt Q8N699)
T1 sequence: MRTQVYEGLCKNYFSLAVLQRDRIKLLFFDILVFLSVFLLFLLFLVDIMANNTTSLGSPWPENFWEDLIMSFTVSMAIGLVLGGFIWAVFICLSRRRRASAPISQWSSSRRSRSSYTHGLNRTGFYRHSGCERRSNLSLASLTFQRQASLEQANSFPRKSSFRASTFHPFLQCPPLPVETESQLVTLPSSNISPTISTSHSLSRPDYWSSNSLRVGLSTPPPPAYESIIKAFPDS


Tests used:
[1] = target: T1, MYCT1 (MYC target 1) (human); assay: co-IP; cell lysates of DLBCL and HEK293T cells; precleared with agarose beads and IgG; target antibody (anti-MAX or anti-MYCT1) or IgG overnight at 4 °C, agarose beads, PBS washes, immunoblot
[2] = target: MAX (MYC associated factor X) (human) (UniProt P61244); assay: as above

| binding [1] | binding [2] | Molecule |
| --- | --- | --- |
| binds |  | MAX (MYC associated factor X) (from UniProt P61244 1-160) |
|  | binds | MYCT1 (MYC target 1) (protein, UniProt Q8N699 1-235) MRTQVYEGLCKNYFSLAVLQRDRIKLLFFDILVFLSVFLLFLLFLVDIMANNTTSLGSPWPENFWEDLIMSFTVSMAIGLVLGGFIWAVFICLSRRRRASAPISQWSSSRRSRSSYTHGLNRTGFYRHSGCERRSNLSLASLTFQRQASLEQANSFPRKSSFRASTFHPFLQCPPLPVETESQLVTLPSSNISPTISTSHSLSRPDYWSSNSLRVGLSTPPPPAYESIIKAFPDS |
